According to patent US5104492A, “Recovery of carboxylic acids from water by precipitation from organic solutions” (The Regents of the University of California, priority 1990, dated 1992):

Excerpt: An aqueous solution of fumaric acid was extracted with methyl isobutyl ketone (MIBK).

Question: What does the source list for O=C(O)/C=C/C(=O)O [fumaric acid]?
Answer: excess acid recovered as a solid precipitate (0.76% H2O, overhead fraction 26.56%): 46.8%; excess acid recovered as a solid precipitate (0.95% H2O, overhead fraction 14.19%): 39.1%

Read-outs that look alike come from different tables or passages of the source.
